The results in this text go back to ChEMBL document CHEMBL5226327, “Source and exploration of the peptides used to construct peptide-drug conjugates” (Eur J Med Chem, 2021).

The term IC50 denotes the concentration at which inhibition is half-maximal. A lower IC50 goes with greater potency in that assay.

For this assay, the system named is MDA-MB-231. The assay is described as follows: Cytotoxicity against human MDA-MB-231 cells (reference value: 3.0 uM). Type of assay: functional, cell-based.

In turn, `COc1cccc2c1C(=O)c1c(O)c3c(c(O)c1C2=O)C[C@@](O)(C(=O)CO)C[C@@H]3O[C@H]1C[C@H](N)[C@H](O)[C@H](C)O1` [DOXORUBICIN] displayed an IC50 of 1500 nM.
